From patent US20250312320A1, “METHOD AND TREATMENT FOR OSTEOARTHRITIS AND DISEASES OF CHONDROCYTE HYPERTROPHY” (The Royal Veterinary College, priority 2022, published 2025)
Some entries share one result that the patent states for a list of compounds.

Test system: ATDC5 micromasses
Assay: Phased dosing of CDK8i on ATDC5 micromasses (alcian blue / alizarin red)
Assay type: cell-based, mouse
Details: 1 μM, equivalent to presence for entire culture period
Method: To understand the longevity of the CDK8i effect observed with BI1347 and MSC2530818, ATDC5 micromasses were exposed to a phased dosing regimen. This consisted of treating standard 10 μl ATDC5 micromasses with differentiation media containing 1 μM of BI1347 or MSC2530818 for 2 days before switching to control differentiation media for the remaining culture period ending on day 14 of differentiation. This was repeated for 4, 6, 9, 11 and 14 days of treatment. On day 14, cells were fixed and stained with alizarin red or alcian blue as previously described.

| SMILES | exposure time in culture required to modify long term chondrocyte phenotype [h] |
| --- | --- |
| CN(C)C(=O)Cn1cc(-c2ccc(-c3cncc4ccccc34)cc2)cn1 [BI1347] | < 48 |
| Cc1n[nH]c2ncc(C(=O)N3CCC[C@H]3c3ccc(Cl)cc3)cc12 [MSC2530818] | < 48 |
